# Results are given in words; binding and its absence hold for the method and conditions named. For some assays here: Binding seen in cells or lysates may run through a third protein. For some assays here: Binding can be weak; no strength is given.
# T1: GvpA-based gas vesicles, shell of the major shell protein GvpA from Anabaena flos-aquae (Anabaena flos-aquae) (UniProt P10397)
# T1 sequence: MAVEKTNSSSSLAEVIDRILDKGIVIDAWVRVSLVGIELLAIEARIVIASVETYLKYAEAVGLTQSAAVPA
# Tests used:
# [1] = target: T1, GvpA-based gas vesicles, shell of the major shell protein GvpA from Anabaena flos-aquae (Anabaena flos-aquae); assay: condition: GvpU at 0.5 mg/mL added 1:5 v/v to GVs at OD500 = 0.5
# [2] = target: GvpB-based gas vesicles (Mega GVs), shell of the major shell protein GvpB (Bacillus megaterium); assay: co-sedimentation
binding [1],binding [2],Molecule
no binding,,GvpU::6xHisTag (Bacillus megaterium)
,binds,"GvpC, minor shell protein from A. flos-aquae (protein, UniProt P09413 1-193) MISLMAKIRQEHQSIAEKVAELSLETREFLSVTTAKRQEQAEKQAQELQAFYKDLQETSQQFLSETAQARIAQAEKQAQELLAFHKELQETSQQFLSATAQARIAQAEKQAQELLAFYQEVRETSQQFLSATAQARIAQAEKQAQELLAFHKELQETSQQFLSATADARTAQAKEQKESLLKFRQDLFVSIFG"

# Reference: publication doi:10.1101/2023.06.01.543273
